Data: article PMC8627553

By UniProt entry, the sequences of proteins in these tests, tags left out. Residues count along the entry.
UniProt P0CW70: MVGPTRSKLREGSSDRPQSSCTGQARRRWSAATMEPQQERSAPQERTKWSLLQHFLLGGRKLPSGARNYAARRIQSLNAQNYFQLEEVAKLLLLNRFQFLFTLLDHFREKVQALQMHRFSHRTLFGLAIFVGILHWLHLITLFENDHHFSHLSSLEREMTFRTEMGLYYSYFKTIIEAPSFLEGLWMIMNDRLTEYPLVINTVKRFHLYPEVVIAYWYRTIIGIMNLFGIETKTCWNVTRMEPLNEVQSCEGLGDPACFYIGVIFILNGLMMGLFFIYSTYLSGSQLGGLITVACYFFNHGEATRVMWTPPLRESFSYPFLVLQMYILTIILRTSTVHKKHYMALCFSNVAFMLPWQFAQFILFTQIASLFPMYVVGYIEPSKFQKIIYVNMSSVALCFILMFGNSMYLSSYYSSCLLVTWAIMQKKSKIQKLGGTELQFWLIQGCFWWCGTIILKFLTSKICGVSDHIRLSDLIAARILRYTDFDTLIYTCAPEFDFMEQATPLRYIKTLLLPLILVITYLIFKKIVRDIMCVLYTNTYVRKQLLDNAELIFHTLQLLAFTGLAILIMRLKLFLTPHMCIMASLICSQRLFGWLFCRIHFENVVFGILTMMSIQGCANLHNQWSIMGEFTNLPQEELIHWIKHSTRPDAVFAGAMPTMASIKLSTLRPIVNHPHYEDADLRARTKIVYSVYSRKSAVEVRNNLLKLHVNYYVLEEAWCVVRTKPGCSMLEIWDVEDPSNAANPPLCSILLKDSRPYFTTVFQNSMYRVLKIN
UniProt Q9D2F7, residues 33-1881: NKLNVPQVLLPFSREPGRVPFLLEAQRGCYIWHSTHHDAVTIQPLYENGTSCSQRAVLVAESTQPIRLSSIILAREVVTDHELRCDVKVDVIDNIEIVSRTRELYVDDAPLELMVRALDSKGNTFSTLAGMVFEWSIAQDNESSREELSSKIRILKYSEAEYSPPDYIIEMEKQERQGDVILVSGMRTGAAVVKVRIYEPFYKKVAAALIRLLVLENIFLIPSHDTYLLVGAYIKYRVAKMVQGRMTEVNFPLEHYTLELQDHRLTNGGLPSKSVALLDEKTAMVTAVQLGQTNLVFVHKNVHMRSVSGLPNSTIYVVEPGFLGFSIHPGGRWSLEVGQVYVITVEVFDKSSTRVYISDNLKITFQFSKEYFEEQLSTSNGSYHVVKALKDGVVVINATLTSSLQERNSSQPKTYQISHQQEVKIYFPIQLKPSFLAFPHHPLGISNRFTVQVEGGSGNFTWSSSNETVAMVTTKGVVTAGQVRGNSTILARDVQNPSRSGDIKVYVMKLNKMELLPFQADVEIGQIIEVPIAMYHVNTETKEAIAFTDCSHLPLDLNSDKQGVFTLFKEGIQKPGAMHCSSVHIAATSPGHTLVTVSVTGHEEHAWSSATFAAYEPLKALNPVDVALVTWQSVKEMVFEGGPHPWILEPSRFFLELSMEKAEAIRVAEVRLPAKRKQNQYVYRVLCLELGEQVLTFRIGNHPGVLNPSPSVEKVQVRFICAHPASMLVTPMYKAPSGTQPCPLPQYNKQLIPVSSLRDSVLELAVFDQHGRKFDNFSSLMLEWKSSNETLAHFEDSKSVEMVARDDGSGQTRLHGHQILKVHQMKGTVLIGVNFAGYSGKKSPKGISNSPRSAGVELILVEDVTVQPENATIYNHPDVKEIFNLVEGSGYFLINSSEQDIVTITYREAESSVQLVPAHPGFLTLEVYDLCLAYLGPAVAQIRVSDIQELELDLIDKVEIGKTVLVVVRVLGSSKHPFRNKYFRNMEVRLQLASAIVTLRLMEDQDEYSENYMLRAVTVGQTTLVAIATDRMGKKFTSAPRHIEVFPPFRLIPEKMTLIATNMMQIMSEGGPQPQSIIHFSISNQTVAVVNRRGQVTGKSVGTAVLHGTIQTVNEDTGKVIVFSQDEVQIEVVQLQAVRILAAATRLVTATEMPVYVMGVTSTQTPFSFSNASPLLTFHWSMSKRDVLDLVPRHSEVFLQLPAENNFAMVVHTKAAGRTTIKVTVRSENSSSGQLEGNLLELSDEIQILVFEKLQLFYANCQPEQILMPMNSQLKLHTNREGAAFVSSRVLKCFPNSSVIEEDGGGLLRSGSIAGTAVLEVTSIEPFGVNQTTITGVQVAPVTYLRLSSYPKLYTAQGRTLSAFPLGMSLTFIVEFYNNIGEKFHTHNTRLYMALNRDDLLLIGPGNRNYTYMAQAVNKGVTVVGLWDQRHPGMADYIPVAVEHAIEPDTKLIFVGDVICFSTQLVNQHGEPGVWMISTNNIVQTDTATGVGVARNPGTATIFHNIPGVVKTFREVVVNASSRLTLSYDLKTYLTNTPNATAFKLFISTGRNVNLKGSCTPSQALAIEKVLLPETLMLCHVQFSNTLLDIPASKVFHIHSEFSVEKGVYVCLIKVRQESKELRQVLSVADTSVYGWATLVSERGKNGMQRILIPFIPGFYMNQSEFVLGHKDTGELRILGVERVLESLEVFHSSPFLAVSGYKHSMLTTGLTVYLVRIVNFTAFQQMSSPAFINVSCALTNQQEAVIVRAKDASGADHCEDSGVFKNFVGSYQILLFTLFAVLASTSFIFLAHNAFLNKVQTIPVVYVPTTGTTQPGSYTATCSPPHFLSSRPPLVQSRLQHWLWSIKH
UniProt Q9Z2E9: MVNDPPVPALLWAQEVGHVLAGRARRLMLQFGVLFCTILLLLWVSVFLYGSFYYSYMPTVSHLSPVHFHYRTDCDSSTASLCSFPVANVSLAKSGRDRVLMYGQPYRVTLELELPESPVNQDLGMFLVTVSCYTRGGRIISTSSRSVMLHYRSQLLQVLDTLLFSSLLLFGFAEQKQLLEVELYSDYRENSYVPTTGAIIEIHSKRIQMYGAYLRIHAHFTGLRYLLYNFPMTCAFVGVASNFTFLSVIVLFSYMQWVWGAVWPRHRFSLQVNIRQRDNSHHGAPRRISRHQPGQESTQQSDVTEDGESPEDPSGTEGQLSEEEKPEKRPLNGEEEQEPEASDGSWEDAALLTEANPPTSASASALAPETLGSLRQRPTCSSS

T1: FAM209-FLAG (family with sequence similarity 209, FLAG knock-in) (mouse (endogenous in testis)) (UniProt A2APA5)
T1 sequence: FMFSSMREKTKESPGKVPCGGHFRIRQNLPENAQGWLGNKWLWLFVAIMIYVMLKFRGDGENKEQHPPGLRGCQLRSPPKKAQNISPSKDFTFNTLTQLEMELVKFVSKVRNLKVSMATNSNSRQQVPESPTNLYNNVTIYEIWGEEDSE

B1: SPACA9 (protein, UniProt Q7TPM5 1-168)
chain: MNEVKESLRSIEQKYKLFQQQQFTFIAALEHCRENAHDKIRPISSIEQVQSYMEHYCNNSTHRRILIMFMDICSELSKLCQHFEALHSGTPVTNSLLEKCKTLVSQSNDLSSLRAKYPHEVVNHLSCDEARNHYGGVVSLIPIVLDFMKEWIAHSEKLPRKVLQHGTT
B2: E3 ubiquitin ligase TRIM69 (protein, UniProt Q80X56 1-500)
chain: MEVSSRPPSNFDPGNYVEMSDPTTTHLPSKVVIQDLTTELHCPLCNDWFRDPLMLTCGHNFCQDCIQSFWKVHSKETFCPDCKMLCQYSNCTFNLVLEKLVEKIKKLPLLKGHPQCPEHGENLKLFSKPEGKMICFQCKDARLSMGQSKDFLQISEAVRFFTEELAIYQSQLQTTLKELQSLRTIQKDAISAYKDNKIQLQQNLSLEFLKLHQFLHNKEKDILNDLRDEGKLLNEEMEVNLNQIQEQCLVAKDMLATIQARMEQQNSFDFLTDITKLIESMEKGMKTIVPRQLIAKKLSLGRFKGPIQYIIWKEMQAILSPGPSQLTLDPKTAHPNLVLSKSQTSVCHCDVKQVMPDDPERFDSSVAVLGSKGFTSGKWYWEIEVGKKTKWTIGVVRESIIRKGSCPLTPEQGFWLLRLRNQTDLKALDLPSRSLTLGDLRRVGVYLDYEGGQVSFYNATTMTHLYTFSSVFQEKLFPYLCPCLNDGGENKEPLHIVHPQ
B3: calmegin (CLGN) (protein, UniProt P52194 20-611)
chain: DFMDDGVEVEDFSENSDESNIKDEPSSGTFKYKTPQPIGEVYFTETFDSGNLAGWVLSKAKKDDMDSEIAIYDGRWEIEELKENQVPGDRGLVLKSKAKHHAIAAVLEKPFIFADKPLIVQYEVNFQDGIDCGGAYIKLLADTGDLILENFYDKTSYTIMFGPDKCGEDYKLHLIFRHKHPKTGVFEEKHAKPPDVDLKEFFTDRKTHLYTLVMNPDDTFEVLIDQKVVNQGTLLDDVVPPINPPREIDDPSDKKPEEWDDRAKIPDPTAVRPEDWDENEPAQIEDSSAVKPDGWLDDEPKFIPNPKAEKPEDWSDDMDGEWEAPHIPNPACQIGCGEWKPPMIDNPKYKGIWRPPMINNPNYQGLWSPQKIPNPDYFEDDHPFLLTSFSALGLELWSMTPDIYFDNFIICSEKEVADQWATDGWELKIMVANANEPGVLRQLVIAAEERPWLWLMYLVMAGLPVALVASFCWPRKVKKKYEDTGPKKTELCKLQSKAALEQEAEEEKAPEKPEDVQEEKKPGEAEVVTVEKEVIGEPEEKSKEDRETLEGQEEVSKLSKSGSEDEMKDADESPGSGDAPLKSLRKRRVRKD

Target: Probable C-mannosyltransferase DPY19L2 (mouse (endogenous in testis)) (UniProt P0CW70)
Assay: affinity purification with mass spectrometry; anti-DPY19L2 conjugated to Protein A/G resin; testis lysates of Fam209^FLAG (FAM209 present) or Fam209^+1/+1 (FAM209 absent) mice, CHAPS buffer, 3 h at 4°C; eluted with IgG elution buffer

binding, binds:
B1
B2

Target: T1, FAM209-FLAG (family with sequence similarity 209, FLAG knock-in) (mouse (endogenous in testis))
Assay: affinity purification with mass spectrometry; anti-FLAG M2 resin with Fam209^Flag/Flag testis lysate, wild-type testis as control; CHAPS buffer (50 mM Tris pH 7.5, 150 mM NaCl, 1 mM DTT, 1% CHAPS), 1 h at 4°C; eluted with FLAG peptide; three independent IPs

binding, binds:
Probable C-mannosyltransferase DPY19L2 (from UniProt P0CW70 1-773)
nesprin-2 (SYNE2) (from UniProt Q6ZWQ0 1-6874)
nuclear pore membrane glycoprotein 210-like (NUP210L) (from UniProt Q9D2F7 33-1881)
seipin (BSCL2) (from UniProt Q9Z2E9 1-383)
B3

Results are given in words; binding and its absence hold for the method and conditions named. In cells and extracts the contact can be indirect. Here binding means that the protein was enriched with, or labelled near, the bait; the list need not be complete. For some of these results: Tags and fused reporters may be left off the sequences shown.
